Data on 63 compounds can be found in the supplement of paper PMC3047530.

This is one part of the list. Most values come without repeats; read them as rough.

This assay relates to Geomyces destructans. In words: growth inhibition relative to DMSO control; higher = stronger growth inhibition. Particulars: 10 µM; 15 °C; incubation time 10 days.
`O=C(O)[C@@H]1[C@H]2C[C@H]3c4[nH]c5ccccc5c4CCN3C[C@@H]2CC[C@@H]1O`: the growth inhibition is -4.71%.

For the compound `COc1cc(CNC(=O)CCCC/C=C/C(C)C)ccc1O`, the growth inhibition was -1.95%.

Regarding `CC(=O)O[C@@H]1CC2C(C)(C)CCC[C@]2(C)C2CC[C@]3(C)C(=CC(=O)O[C@H]3c3ccoc3)[C@@]21C` (stereo partly drawn), the growth inhibition was determined as 2.83%.

As for `CC(=O)Nc1c(I)cc(I)c(C(=O)O)c1I`, the growth inhibition is -17.8%.

With `CC(=O)O[C@]1(C)CC[C@@]23C[C@H]1C(C)(C)[C@@H]2CC[C@H]3C`, the growth inhibition is -1.69%.

`Cc1cc2cc3c(C)cc(=O)oc3c(C)c2o1`: the growth inhibition was -29.5%.

Consider `CC(=O)Nc1nnc(S(N)(=O)=O)s1`, for which the growth inhibition was -34%.

Take `CC(C)Oc1ccc2c(=O)c(-c3ccccc3)coc2c1`: the growth inhibition is -43.1%.

Take `C[N+](C)(C)CC(O)CC(=O)[O-]` (stereo not drawn): the growth inhibition was -5.42%.

As to `CC(=O)O[C@@H]1/C=C/[C@@](C)(O)C(=O)[C@@H](C)C/C=C/[C@H]2[C@@H]3O[C@]3(C)[C@@H](C)[C@H]3[C@H](Cc4ccccc4)NC(=O)[C@@]312`, the growth inhibition is -8.58%.

Take `COc1cc(O)c2c(=O)cc(C)oc2c1CC=C(C)C`: the growth inhibition is -10.4%.

In the case of `OC[C@@H](O)[C@@H](O[C@@H]1O[C@H](CO)[C@@H](O)[C@H](O)[C@H]1O)[C@H](O)[C@@H](O)CO`, the growth inhibition was -31.2%.

In the case of `Nc1ncnc2c1ncn2[C@@H]1O[C@H](CO)[C@@H](O)[C@@H]1O`, the growth inhibition was -25.6%.

`O=c1[nH]cnc2nc[nH]c12`: the growth inhibition was -6.51%.

As for `C[C@@](Cc1ccc(O)c(O)c1)(NN)C(=O)O`, the growth inhibition is -14.4%.

On to `CC(=O)OC1CC(O)C(C)(C)C2CC(=O)C3(C)C(CCC4(C)C(c5ccoc5)OC(=O)C5OC543)C12C` (stereo not drawn), for which the growth inhibition was found to be 0.74%.

For `CN(C)CCC(c1ccc(Br)cc1)c1ccccn1` (stereo not drawn), the growth inhibition was -9.19%.

Turning to `NC[C@@H]1O[C@H](O[C@H]2[C@@H](O)[C@H](O[C@@H]3[C@@H](O)[C@H](N)C[C@H](N)[C@H]3O[C@H]3O[C@H](CO)[C@@H](O)C[C@H]3N)O[C@@H]2CO)[C@H](N)[C@@H](O)[C@@H]1O[C@H]1O[C@H](CO)[C@@H](O)[C@H](O)[C@@H]1O`, the growth inhibition is -8.69%.

For `Oc1c(Cl)cc(Cl)c2cccnc12`, the growth inhibition turned out to be 80.5%.

Turning to `N#Cc1ccc2c(c1)N(CCCN1CCC(O)CC1)c1ccccc1S2`, the growth inhibition is -34.1%.

`CCC1(c2ccccc2)C(=O)NCNC1=O`: the growth inhibition was -19%.

Regarding `NC(Cn1ccc(=O)c(O)c1)C(=O)O` (stereo not drawn), the growth inhibition is -8.04%.

Consider `CC(C)NCC(O)COc1ccc(CC(N)=O)cc1` (stereo not drawn), for which the growth inhibition is -22.9%.

With `COc1ccccc1-c1cc(=O)c2c(OC)cccc2o1`, the growth inhibition was 2.21%.

As to `COC(=O)Nc1nc2cc(Sc3ccccc3)ccc2[nH]1`, the growth inhibition was -21.1%.

As for `CN1CCN(CC(=O)N2c3ccccc3C(=O)Nc3cccnc32)CC1`, the growth inhibition is -25.5%.

Regarding `Clc1cccc(Cl)c1NC1=NCCN1`, the growth inhibition is -12.4%.

On to `N=C(N)NCCCCNC(=N)N`, for which the growth inhibition is -16.2%.

As for `O=C1CCCCC/C=C\CCCCCCCCO1`, the growth inhibition was -41.6%.

On to `CCN(CC)C(C)CN1c2ccccc2Sc2ccccc21` (stereo not drawn), for which the growth inhibition is -28.2%.

For `CCCNC(=O)NS(=O)(=O)c1ccc(Cl)cc1`, the growth inhibition is -9.07%.

With `CNCCc1ccccn1`, the growth inhibition is -28.5%.

As for `NCCCCCC(=O)O`, the growth inhibition is -31.1%.

`C=CC(C)(C)c1c2c(c(O)c3c(=O)c4ccc(O)c(O)c4oc13)C=CC(C)(C)O2`: the growth inhibition is -6.06%.

On to `NC1(C(=O)O)CC1`, for which the growth inhibition is -41.8%.

Take `Oc1cc2c(cc1O)C1c3ccc(O)c(O)c3OCC1(O)C2` (stereo not drawn): the growth inhibition is -14.1%.

In the case of `C[C@H]1[C@H](C)CC[C@]2(C(=O)O)CC[C@]3(C)C(=CC[C@@H]4[C@@]5(C)CC[C@H](O)C(C)(C)[C@@H]5CC[C@]43C)[C@H]12`, the growth inhibition is -3.15%.

On to `Oc1ccc2c(c1)OC[C@H]1c3cc4c(cc3O[C@@H]21)OCO4`, for which the growth inhibition is 4.48%.

In the case of `CC(=O)[C@@]1(O)CC[C@H]2[C@@H]3CCC4=CC(=O)CC[C@]4(C)[C@H]3CC[C@@]21C`, the growth inhibition was -0.558%.

For `O=C1NCC2(CCN(CCc3ccccc3)CC2)O1`, the growth inhibition is -30.9%.

Take `CN(C)CCOC(c1ccccc1)c1ccccc1.Cn1c(=O)c2[nH]c(Cl)nc2n(C)c1=O`: the growth inhibition was -4.04%.

For the compound `C[C@@H]1CC[C@@]23CCC4(C)[C@@](C=CC5[C@@]6(C)CC[C@H](O)C(C)(C)C6CC[C@]54C)(OC2=O)C3[C@H]1C` (stereo partly drawn), the growth inhibition is -1.32%.

Consider `COc1cc2oc(=O)c3oc4c5c(ccc4c(=O)c3c2cc1OC)OC(C)(C)CC5` [beta-DIHYDROROTENONE], for which the growth inhibition is 4.5%.

For the compound `CSCC[C@H](NC=O)C(=O)N[C@@H](Cc1ccccc1)C(=O)O`, the growth inhibition is -8.94%.

As to `CC(=O)O[C@@H]1C[C@H]2C(C)(C)C(=O)C=C[C@]2(C)[C@H]2CC[C@@]3(C)[C@H](c4ccoc4)OC(=O)[C@H]4O[C@]43[C@@]21C`, the growth inhibition turned out to be 7.51%.

For the compound `CC(NCCc1ccc(O)cc1)C(O)c1ccc(O)cc1` (stereo not drawn), the growth inhibition was -5.9%.

In the case of `CCC1(C)CC(=O)NC1=O` (stereo not drawn), the growth inhibition is -9.42%.

As for `CC1(C)CC2C1CC[C@]1(CBr)CCC3C(CC(=O)O)C(=O)O[C@@]32C1` (stereo partly drawn) [BROMO-3-HYDROXY-4- (SUCCIN-2-YL)-CARYOLANE gamma-LACTONE], the growth inhibition is -14.2%.

On to `CC(=O)Oc1ccc(C(c2ccc(OC(C)=O)cc2)c2ccccn2)cc1`, for which the growth inhibition was -39.3%.

In the case of `CCC(C)(C)C(=O)O[C@H]1C[C@@H](C)C=C2C=C[C@H](C)[C@H](CC[C@@H]3C[C@@H](O)CC(=O)O3)[C@H]21`, the growth inhibition was -25.5%.

Consider `CCCc1nn(C)c2c(=O)[nH]c(-c3cc(S(=O)(=O)N4CCN(C)CC4)ccc3OCC)nc12`, for which the growth inhibition is -37.2%.

With `COc1cc(O)c(C(=O)/C=C/c2ccccc2)c(OC)c1`, the growth inhibition worked out at 3.7%.

For `NNC(=O)c1ccncc1.Nc1ccc(C(=O)O)c(O)c1`, the growth inhibition is -10.9%.

With `O=C1CC[C@]23/C=C/C(=O)NCCCCNCCCNC(=O)/C=C/c4ccc(c2c4)O[C@@H]3C1`, the growth inhibition is -3.17%.

`O=C1O[C@H]([C@@H](O)CO)C(O)=C1O`: the growth inhibition is -2.93%.

In the case of `Clc1ccc(C(c2ccccc2Cl)C(Cl)Cl)cc1` (stereo not drawn), the growth inhibition was -2.56%.

`CSCCC(NC=O)C(=O)NC(C)C(=O)O` (stereo not drawn): the growth inhibition is -8.94%.

For the compound `O=C(O)c1ccccc1Nc1cccc(C(F)(F)F)c1`, the growth inhibition is -5.92%.

Turning to `Cc1cc(=O)c2c(O)cc(O)c(C)c2o1`, the growth inhibition is -1.67%.

For the compound `Nc1ccc(C(=O)O)c(O)c1`, the growth inhibition is -3.24%.

Consider `C[C@@H]1CC[C@@]2(OC1)O[C@H]1C[C@H]3[C@@H]4CC=C5C[C@@H](O)CC[C@]5(C)[C@H]4CC[C@]3(C)[C@H]1[C@@H]2C`, for which the growth inhibition was 9.31%.

Consider `Nc1nc(/C(=C/CC(=O)O)C(=O)N[C@@H]2C(=O)N3C(C(=O)O)=CCS[C@H]23)cs1`, for which the growth inhibition is -21.1%.

Take `CC(C)CCC[C@@H](C)[C@H]1CC[C@H]2[C@@H]3CC[C@@H]4C[C@H](O)CC[C@]4(C)[C@H]3CC[C@]12C`: the growth inhibition was -2.99%.
